The target of assay [1] is neuroligin-1 (pCAG-HA-Nlgn1) (UniProt Q99K10). Briefly: cell adhesion (cell aggregation) assay; two populations of transfected HEK293 cells (EGFP or DsRed) mixed 1:1 in suspension with 10 mM CaCl2 and 10 mM MgCl2, RT, 90 min; aggregation index from images.
The target of another assay is T1, Lphn1-GFP (UniProt O88917).
T1 sequence: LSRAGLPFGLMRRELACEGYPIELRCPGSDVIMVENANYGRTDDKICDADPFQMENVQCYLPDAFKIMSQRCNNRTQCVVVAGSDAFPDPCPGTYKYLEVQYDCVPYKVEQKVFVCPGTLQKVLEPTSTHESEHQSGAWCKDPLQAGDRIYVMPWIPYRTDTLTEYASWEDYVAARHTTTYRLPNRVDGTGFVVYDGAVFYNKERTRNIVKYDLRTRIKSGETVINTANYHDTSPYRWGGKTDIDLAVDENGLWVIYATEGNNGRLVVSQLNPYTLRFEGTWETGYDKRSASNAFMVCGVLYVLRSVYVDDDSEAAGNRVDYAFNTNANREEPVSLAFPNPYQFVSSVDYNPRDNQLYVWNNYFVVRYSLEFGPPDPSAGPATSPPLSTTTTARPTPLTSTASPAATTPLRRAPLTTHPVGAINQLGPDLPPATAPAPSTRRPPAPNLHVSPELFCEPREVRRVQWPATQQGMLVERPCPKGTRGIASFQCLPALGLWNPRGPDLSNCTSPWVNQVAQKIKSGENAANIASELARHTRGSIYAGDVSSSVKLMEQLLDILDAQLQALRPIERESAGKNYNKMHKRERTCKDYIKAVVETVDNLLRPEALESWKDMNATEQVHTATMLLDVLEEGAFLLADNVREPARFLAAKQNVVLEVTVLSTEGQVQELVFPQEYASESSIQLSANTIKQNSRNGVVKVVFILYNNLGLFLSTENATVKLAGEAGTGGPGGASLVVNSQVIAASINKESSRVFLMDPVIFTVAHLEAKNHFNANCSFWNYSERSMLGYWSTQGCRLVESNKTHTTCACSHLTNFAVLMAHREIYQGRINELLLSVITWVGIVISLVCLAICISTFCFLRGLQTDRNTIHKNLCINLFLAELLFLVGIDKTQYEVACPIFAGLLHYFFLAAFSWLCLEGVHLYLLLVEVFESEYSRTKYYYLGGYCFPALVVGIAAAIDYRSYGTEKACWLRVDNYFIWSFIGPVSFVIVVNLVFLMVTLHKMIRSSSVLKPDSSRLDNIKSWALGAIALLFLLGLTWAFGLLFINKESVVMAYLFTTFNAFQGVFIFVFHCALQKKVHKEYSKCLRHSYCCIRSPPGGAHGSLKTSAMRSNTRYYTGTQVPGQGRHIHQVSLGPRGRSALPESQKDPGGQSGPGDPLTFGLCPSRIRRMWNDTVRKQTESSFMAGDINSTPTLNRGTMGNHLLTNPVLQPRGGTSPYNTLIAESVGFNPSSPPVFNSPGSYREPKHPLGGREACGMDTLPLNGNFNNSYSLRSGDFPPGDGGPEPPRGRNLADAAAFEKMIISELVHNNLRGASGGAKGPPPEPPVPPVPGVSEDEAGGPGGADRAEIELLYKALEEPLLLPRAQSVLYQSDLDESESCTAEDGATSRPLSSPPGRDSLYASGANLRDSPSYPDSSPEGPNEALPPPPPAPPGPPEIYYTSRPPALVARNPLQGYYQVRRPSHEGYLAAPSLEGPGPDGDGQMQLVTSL
Briefly: co-IP; HEK293 cotransfected with a GFP-tagged and an HA-tagged construct; GFP-Trap-A agarose beads, 1.8-2.2 mg total protein; Western blot with anti-HA and anti-GFP.

Sequences of proteins named here, by UniProt entry; tags and fusion partners are left off. Residues count along the entry.
UniProt Q99K10, residues 46-843: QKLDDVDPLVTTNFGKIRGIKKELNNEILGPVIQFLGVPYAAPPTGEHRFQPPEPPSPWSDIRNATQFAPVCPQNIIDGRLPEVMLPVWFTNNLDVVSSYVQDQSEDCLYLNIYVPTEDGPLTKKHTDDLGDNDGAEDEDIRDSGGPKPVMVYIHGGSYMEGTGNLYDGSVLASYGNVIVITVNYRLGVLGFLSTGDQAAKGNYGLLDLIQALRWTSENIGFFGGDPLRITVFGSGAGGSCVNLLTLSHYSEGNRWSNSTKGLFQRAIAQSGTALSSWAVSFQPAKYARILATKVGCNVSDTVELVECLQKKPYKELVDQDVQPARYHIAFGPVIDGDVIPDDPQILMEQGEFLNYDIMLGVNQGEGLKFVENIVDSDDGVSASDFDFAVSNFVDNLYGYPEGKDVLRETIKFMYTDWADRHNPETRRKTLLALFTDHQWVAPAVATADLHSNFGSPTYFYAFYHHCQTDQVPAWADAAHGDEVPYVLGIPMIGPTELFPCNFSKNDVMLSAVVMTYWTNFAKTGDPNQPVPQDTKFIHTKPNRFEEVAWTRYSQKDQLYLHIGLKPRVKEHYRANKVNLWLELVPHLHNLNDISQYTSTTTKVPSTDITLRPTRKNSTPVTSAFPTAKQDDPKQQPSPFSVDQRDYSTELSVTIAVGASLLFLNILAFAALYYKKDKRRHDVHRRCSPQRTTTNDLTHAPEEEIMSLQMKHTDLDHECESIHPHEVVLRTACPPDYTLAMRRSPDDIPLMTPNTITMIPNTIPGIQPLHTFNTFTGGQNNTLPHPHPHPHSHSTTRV

Results are given in words; binding and its absence hold for the method and conditions named. For some assays here: In cells and extracts the contact can be indirect. Some entries that bind do so weakly or less than the wild type. For some assays here: Sequences can lack the tags named with a protein.

With “neuroligin-1 (pCAG-HA-Nlgn1) (from UniProt Q99K10 46-843)”, the binding entry in assay [1] is “binds”.

B1: HA-Cntn6 (protein, UniProt P97528 20-999)
chain: ESRFTRPIFIQEPQDVIFPLDLSRSEIILSCTASGYPSPHYRWKQNGTDIDFSMTYHYRLDGGSLAISSPRTDQDIGIYQCLATNPVGTILSRKAKLQFAYIEDFETKSRSTVSVREGQGVVLLCGPPPHFGELSYDWTFNDNPLYVQEDKRRFVSQNTGNLYIAKVEPSDVGNYTCFVTNKEAHRSVQGPPTPLVQRTDGVMGEYEPKIEVRFPETIQAAKDSSVKLECFALGNPVPDISWRRLDGSPMPGKVKYSNSQATLEIPKFQQEDEGFYECVAGNLRGRNLAKGQLIFYAPPEWEQKIQNTYLSIYDSLFWECKASGNPNPSYTWLKNGERLNTEERIQTENGTLIITMLNVSDSGIYQCAAENKYQTIYANAELRVLASAPDFSKNPIKKISVVQVGGDISIECKPNAFPKASISWKRGTENLKQSKRVFFLEDGSLKICNVTRSDAGSYTCVATNQFGNGKSSGSLIVKERTVITVPPSKMDVTVGESIVLPCQVSHDPTMEVLFVWYFNGDVIDLKKGVAHFERIGGESVGDLMIRNIQLGHSGKYLCTVQTTLERLSAVADIIVRGPPGPPEDVKVEHISSTTSQLSWRPGPDNNSPIQIFTIQTRTPFSVGWQAVATVPEILNGQTYNATVIGLSPWVEYEFRVVAGNNIGIGEPSKPSELLRTKASIPNVAPVNINGGGGSRSELVITWEPIPEELQNGEGFGYIIMFRPVGSTTWMKEKVALVESSKFIYRNESIMPLSPFEVKVGVYNNEGEGSLSTVSIVYSGEDEPRLAPRGTSVQSFSASDMEVSWNAIAWNRNTGRVLGYEVLYWTDNSKESMIGKIRVSGNVTTKNITGLRANTIYFASVRAYNTAGTGPSSPPVNVTTKKSPPSQPPANIAWKLSNSKLCLNWEHVKTMENESEVLGYKILYRQNRQSKTHVLETNNTSAELLVPFEEDYLIEIRTVSDGGDGSSSEEIRIPKMSSLSS
With B1, the binding result with Lphn1-GFP was “binds”.

The record behind these values is publication PMC5156884.
